# Data reported in US20020062009A1 (GlaxoSmithKline, published 2002).
# No constants are given. Whether binding was seen depends on the method and setting. Some binding calls cover weakened binding; strength is not graded here.
# B1: HZ3G9, humanized variant of 3G9 (human frameworks) (antibody, IgG1, V domains shown)
# VH: QVQLVQSGAEVKKPGASVKVSCKASGSTFTSYWMHWVKQAPGQGLEWIGRIDPNSGGTKDNEKFKSKATLTVDKSTSTAYMELSSLRSEDTAVYYCARETYYDSSFAYWGQGTMVTVSA
# VL: DIVMTQSPSSLSASVGDRVTITCKASQNVGTNVAWYQQKPGKAPKALIYSASYRYSGVPDRFSGSGSGTDFTLTISSLQPEDFATYYCQQYNSYPLTFGGGT
# Biological target: T1, human erythropoietin receptor (EPOr), recombinant entire extracellular domain (human) (UniProt P19235)
# T1 sequence (looked up): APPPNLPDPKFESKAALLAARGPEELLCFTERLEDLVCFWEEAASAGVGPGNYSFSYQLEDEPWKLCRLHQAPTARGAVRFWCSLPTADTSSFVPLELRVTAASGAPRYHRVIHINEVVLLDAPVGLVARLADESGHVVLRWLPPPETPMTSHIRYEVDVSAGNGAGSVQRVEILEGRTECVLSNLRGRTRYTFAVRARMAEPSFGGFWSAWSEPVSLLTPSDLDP
# Assay: ELISA; EPOr extracellular domain adsorbed on plate, detected with anti-human H+L enzyme conjugate
binder,measurement,value
B1,binding,binds
